{"source": "PubChem BioAssay AID504467", "about": "(National Center for Advancing Translational Sciences (NCATS), 2011)", "note": "Out of some 330,000 compounds screened, about 7,700 (2.3%) were called active. This list was built around the results that the source calls inconclusive (neither active nor inactive); the mix of calls is not that of the screen. Calls follow the shape of the dose curve; as a rule, active = well fitted inhibition curve with a large enough effect; inconclusive = small, poorly fitted or top-dose-only effect, or effect the other way; inactive = flat fitted curve, though single readings scatter. Where the call is inconclusive, the potency comes from a doubtful curve fit. Potency is read from the fitted curve at half-maximal effect.", "data": [{"test": "qHTS screen for small molecules that inhibit ELG1-dependent DNA repair in human embryonic kidney (HEK293T) cells expressing luciferase-tagged ELG1; also: nearly all actives have a fitted effect of over 55% in size", "conditions": "HEK293T ELG1-luciferase reporter, luminescence, 16 h, DNA damage induced by 5-fluorouridine; series mostly up to 46.1 µM", "summary_of_the_method": "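Overnight (16 hr) co-exposure of 2,000 cells/well to 5-fluorouridine and compound at 37 °C preceded detection. Luciferase was quantified via ONE-Glo luminescence; loss of signal denotes inhibition.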", "values": [{"smiles": "O=C(CN1CCN(S(=O)(=O)c2ccc(Br)cc2)CC1)N/N=C/c1ccc(Br)s1", "Potency": "inconclusive: 29.1 µM [inhibitor, single point]"}, {"smiles": "Cc1csc(NC(=O)c2ccc(Cn3nc(C)c(Br)c3C)o2)n1", "Potency": "active: 9.2 µM"}, {"smiles": "Cn1nc(C(=O)NCCc2ccc3c(c2)OCCO3)c2ccccc2c1=O", "Potency": "inconclusive: 29.1 µM [activator, single point]"}, {"smiles": "COc1cc(-c2noc(C)c2C#CC2(O)CCCCC2)cc(OC)c1OC", "Potency": "inconclusive: 10.3 µM [inhibitor, partial curve]"}, {"smiles": "O=[N+]([O-])c1ccc(-c2ccc(S(=O)(=O)NCCN3CCCC3)cc2)cc1", "Potency": "inconclusive: 7.3 µM [inhibitor, partial curve]"}, {"smiles": "O=C(c1cnn2c(C(F)(F)F)cc(-c3ccccc3)nc12)N1CCCCC1c1cccnc1", "note": "(centres undefined)", "Potency": "inconclusive: 20.6 µM [inhibitor, single point]"}, {"smiles": "COc1ccc(-c2nc(-c3ccc(NC(=O)c4ccncc4)cc3)no2)cc1OC", "Potency": "inconclusive: 6.51 µM [inhibitor, partial curve, poor fit]"}, {"smiles": "O=C(NC1CC1)C1=C[C@H](C2CCCCC2)C[C@H](OCc2ccc(CO)cc2)O1", "Potency": "inconclusive: 16.4 µM [inhibitor, partial curve, poor fit]"}, {"smiles": "Cc1cc(S(=O)(=O)NCC(C)C)ccc1OCC(=O)NCC1CCCO1", "note": "(centres undefined)", "Potency": "inactive"}, {"smiles": "CC(C)CC(=O)NC(=S)Nc1cccc(NC(=O)c2ccccc2)c1", "Potency": "inconclusive: 25.9 µM [inhibitor, partial curve, poor fit]"}, {"smiles": "CCCCC(=O)NCCNc1nc2c(c(=O)n(C)c(=O)n2C)n1Cc1ccc(F)cc1", "Potency": "inconclusive: 23.1 µM [inhibitor, single point]"}, {"smiles": "COc1ccc(OC)c(Nc2nc(N)nc(CCl)n2)c1", "Potency": "inconclusive: 16.4 µM [inhibitor, single point]"}, {"smiles": "Clc1ccc(-n2ncc3c(NCC4CCCO4)ncnc32)cc1", "note": "(centres undefined)", "Potency": "inconclusive: 1.3 µM [activator, partial curve]"}, {"smiles": "CC1=C(C(=O)OC2CCCCC2)C(c2ccc(C)o2)C2=C(CCCC2=O)N1", "note": "(centres undefined)", "Potency": "inconclusive: 29.1 µM [inhibitor, single point]"}, {"smiles": "Cc1ccc(-c2c3c(nc4sc(C(N)=O)c(N)c24)CCCC3)o1", "Potency": "inconclusive: 11.6 µM [inhibitor, partial curve]"}, {"smiles": "COc1ccc(OC)c(N(CC(=O)Nc2cccnc2)S(=O)(=O)c2ccc(OC)c(OC)c2)c1", "Potency": "inconclusive: 12.6 µM [inhibitor, single point]"}, {"smiles": "Cc1cccc(N2CCN(C(=O)CN3C(=O)C4CC=CCC4C3=O)CC2)c1C", "note": "(centres undefined)", "Potency": "inconclusive: 8.2 µM [activator, partial curve]"}, {"smiles": "Cc1ccc(OCC(=O)N/N=C\\c2cn(C)c3ccccc23)c([N+](=O)[O-])c1", "Potency": "inconclusive: 5.17 µM [inhibitor, single point]"}, {"smiles": "Cc1cc(C)nc(N/N=C2/CCSc3ccc(F)cc32)n1", "Potency": "inconclusive: 11.6 µM [inhibitor, partial curve]"}, {"smiles": "Cn1nc(-c2ccc(Cl)cc2)cc1NC(=O)CC(C)(C)CC(=O)O", "Potency": "inconclusive: 29.1 µM [activator, single point]"}, {"smiles": "Cc1ccc2c(c1)COc1c3ccc(C(=O)N4CCCCC4)cc3nn1-2", "Potency": "inconclusive: 9.2 µM [activator, partial curve]"}, {"smiles": "O=C(COc1cc(Cl)ccc1Cl)Nc1ccc2c(c1)CCC2", "Potency": "inactive"}, {"smiles": "COc1cc2nc(=S)n3[nH]c(CCn4nc(C)cc4C)nc3c2cc1OC", "Potency": "inconclusive: 14.6 µM [inhibitor, single point]"}, {"smiles": "CCN1CCN(c2ccc(NC(=O)c3cccc(F)c3)cc2Cl)CC1", "Potency": "inconclusive: 20.6 µM [activator, partial curve]"}, {"smiles": "CC1CCN(C(=O)CSc2nnc3c(n2)[nH]c2ccc(F)cc23)CC1", "Potency": "inactive"}, {"smiles": "Cc1nn(C)c(Oc2ccccc2)c1CCNS(=O)(=O)c1ccc(Cl)cc1", "Potency": "inconclusive: 20.6 µM [inhibitor, single point]"}, {"smiles": "Cc1ccsc1CN(C)C(=O)c1ccc(Oc2ccccc2)cc1", "Potency": "inconclusive: 20.6 µM [activator, single point]"}, {"smiles": "O=C(Nc1cc(S(=O)(=O)N2CCOCC2)ccc1Cl)C(=O)c1c(-c2ccccc2)cc2ccccn12", "Potency": "inconclusive: 29.1 µM [inhibitor, partial curve, poor fit]"}, {"smiles": "Cc1cccc(C=Nc2ccc3c4c(cccc24)CC3)c1O", "Potency": "inconclusive: 16.4 µM [activator, partial curve, poor fit]"}, {"smiles": "Clc1ccc2c(NCc3cccs3)ncnc2c1", "Potency": "inconclusive: 20.6 µM [inhibitor, single point]"}, {"smiles": "O=C(Nc1cccc(Cl)c1)N1CCCCCC1", "Potency": "inconclusive: 14.6 µM [activator, partial curve]"}, {"smiles": "CCOC(=O)c1ccc(NC(=O)CCNC(=O)c2ccc([N+](=O)[O-])cc2)cc1", "Potency": "inactive"}, {"smiles": "CCOC(=O)COc1cc(=O)n(CC)c2ccccc12", "Potency": "inconclusive: 29.1 µM [activator, single point]"}, {"smiles": "COc1ccc(Oc2nc(-c3ccncc3)nc3ccccc23)cc1", "Potency": "inconclusive: 29.1 µM [inhibitor, single point]"}, {"smiles": "O=C(OCC(=O)c1c[nH]c2ccccc12)c1cccc([N+](=O)[O-])c1", "Potency": "inconclusive: 29.1 µM [activator, single point]"}, {"smiles": "COc1ccc(C(C)=O)cc1COc1ccc(-n2cnnn2)cc1", "Potency": "inconclusive: 25.9 µM [inhibitor, partial curve, poor fit]"}, {"smiles": "CCNC(=O)CC1C(=O)N(c2ccc(C)cc2)C(=O)N1Cc1ccccn1", "note": "(centres undefined)", "Potency": "inconclusive: 10.3 µM [activator, partial curve, poor fit]"}, {"smiles": "CC(C)C[C@H](NC(=O)c1[nH]cnc1C(=O)N[C@@H](C)C(=O)OC(C)(C)C)C(=O)OC(C)(C)C", "Potency": "inconclusive: 6.51 µM [inhibitor, single point]"}, {"smiles": "Cc1ccc(O)c(Nc2c3ccccc3nc3ccccc23)c1", "Potency": "active: 8.2 µM"}, {"smiles": "N/C(CC(=O)Nc1ccc(F)cc1F)=N\\OC(=O)c1cccs1", "Potency": "inactive"}, {"smiles": "CC(C)Cn1c(N)c(C(=O)COC(=O)C2=COCCO2)c(=O)n(C)c1=O", "Potency": "inconclusive: 23.1 µM [inhibitor, partial curve, poor fit]"}, {"smiles": "Cc1nn(C(C)C)c(C)c1CN1CCCC(C(=O)c2cccc(OC(C)C)c2)C1", "note": "(centres undefined)", "Potency": "inconclusive: 18.3 µM [inhibitor, partial curve, poor fit]"}, {"smiles": "CC(C)C[C@@H](C(=O)NC1CC1)N1C(=O)N2CCc3c([nH]c4ccccc34)[C@@]2(C)C1=O", "Potency": "inconclusive: 0.058 µM [activator, partial curve, poor fit]"}, {"smiles": "CC(C)(O)C1Cc2cc(/C=C/C(=O)O)c(O)cc2O1", "note": "(centres undefined)", "Potency": "inconclusive: 9.2 µM [activator, partial curve, poor fit]"}, {"smiles": "O=C(NCC1CC1)c1cccc2c1C(=O)c1ccc(-c3ccc(OC(F)(F)F)cc3)cc1S2(=O)=O", "Potency": "inconclusive: 13 µM [activator, partial curve]"}, {"smiles": "O=C(c1ccc2ccccc2n1)N1CCN(S(=O)(=O)c2ccc(Cl)cc2)CC1", "Potency": "inconclusive: 32.6 µM [inhibitor, partial curve, poor fit]"}, {"smiles": "O=C(Nc1cnn(Cc2ccccc2)c1)c1cc2nc(-c3ccco3)cc(C(F)(F)F)n2n1", "Potency": "inconclusive: 13 µM [inhibitor, partial curve]"}, {"smiles": "O=C(NNC(=O)c1csc(N2CCOCC2)n1)c1cccnc1", "Potency": "inactive"}, {"smiles": "Cn1c(SCC(=O)c2ccccc2F)nnc1C1CC1", "Potency": "inconclusive: 29.1 µM [activator, single point]"}, {"smiles": "O=C(OCc1cccc(C(F)(F)F)c1)c1ccc[nH]c1=O", "Potency": "inactive"}, {"smiles": "CC(C)(C)n1ncc2c(=O)n(CC(=O)NCCc3ccccc3)cnc21", "Potency": "inconclusive: 20.6 µM [activator, single point]"}, {"smiles": "O=C(C1=C[C@H](c2ccccc2)C[C@H](OCc2ccc(CO)cc2)O1)N1CCN(Cc2ccccc2)CC1", "Potency": "inconclusive: 23.1 µM [inhibitor, single point]"}, {"smiles": "Nc1c(C(=O)CSc2nc3ccccc3o2)c(=O)[nH]c(=O)n1C1CC1", "Potency": "inconclusive: 11.6 µM [activator, partial curve]"}, {"smiles": "COc1ccc(-c2cccc(C(=O)Nc3ccccc3C)c2)cc1", "Potency": "inactive"}, {"smiles": "COc1ccc(/C=N/NC(N)=S)cc1", "Potency": "inconclusive: 29.1 µM [activator, single point]"}, {"smiles": "COc1cc(Cl)c(S(=O)(=O)NCc2cccnc2)cc1Cl", "Potency": "inactive"}, {"smiles": "CC(C)NC(=O)c1onc(CSc2ccc(C(C)C)cc2)c1C(=O)O", "Potency": "inactive"}, {"smiles": "COc1cc(OC)cc(-c2c(-c3cccs3)c3cc(-c4cnc(N)nc4)ccc3n2C)c1", "Potency": "inactive"}, {"smiles": "Nc1ccccc1C(=O)NNC1=C(C(=O)C(F)(F)F)CCC1", "Potency": "inconclusive: 29.1 µM [inhibitor, single point]"}, {"smiles": "O=[N+]([O-])c1ccccc1/C=N/N1CCN(Cc2ccccc2)CC1", "Potency": "inconclusive: 18.3 µM [activator, partial curve]"}, {"smiles": "CCOC(=O)c1ccc(NC(=O)c2nc[nH]c2C(=O)N[C@H](C)c2ccccc2)cc1", "Potency": "inconclusive: 29.1 µM [inhibitor, single point]"}, {"smiles": "CCCn1c(N)c(C(=O)CSc2nc(C)cs2)c(=O)[nH]c1=O", "Potency": "inactive"}, {"smiles": "CN(Cc1ccc(Cl)cc1Cl)C(=O)CNC(=O)c1ccco1", "Potency": "inactive"}, {"smiles": "O=C(NCCNc1nccc(C(F)(F)F)n1)c1cccc(C(F)(F)F)c1", "Potency": "inconclusive: 18.3 µM [inhibitor, single point]"}]}]}
